Test system: AGE-BSA
Assay: AGE-BSA test (fluorescence quenching control)
Parameters: species or system bovine
Conditions: compound 10 mM; AGE-BSA added to well after day 5

**Q.** With O=C1CC(=O)NC(=S)N1 [2-Thiobarbituric acid] as the compound, how does the AGE-BSA test read?
**A.** 12 relative units

**Q.** With N=C(N)NN [Aminoguanidine] as the compound, how does the AGE-BSA test read?
**A.** 10 relative units

**Q.** With CC(C)(S)[C@@H](N)C(=O)O [D-Penicillamine] as the compound, how does the AGE-BSA test read?
**A.** 12 relative units

**Q.** With CC(C)(S)C(N)C(=O)O (racemic) [D,L-Penicillamine] as the compound, how does the AGE-BSA test read?
**A.** 15 relative units

From patent US6417235B2, “Method and use of α-amino-β-mercapto-ethane derivatives as dicarbonyl scavengers for treatment of conditions resulting from protein, lipid, and DNA damage” (University of Kentucky Research Foundation, priority 2000, dated 2002)
